Reference: patent publication US20100129344A1, “MEDICAL USES AND THERAPIES BASED UPON THE ACTION OF AZUROCIDIN ON IGFBP-1” (priority 2005, published 2010)
No constants are given. Whether binding was seen depends on the method and setting. Some entries that bind do so weakly or less than the wild type. Each block holds one binder with its values, some of them ahead of it.

Amino acid sequences for entries named in this document (tags omitted). Residues count along the entry.
UniProt P05019, residues 49-118: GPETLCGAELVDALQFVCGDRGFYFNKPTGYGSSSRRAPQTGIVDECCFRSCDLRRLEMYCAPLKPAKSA

Key:
[1] = target: Recombinant IGF-I (human) (human) (UniProt P05019); assay: BIAcore, IGF-I surface; ks (slope of dRU/dt against RU over 21-120 s) plotted against nM IGFBP-1 (as intact), after 2 h with partially purified azurocidin
[2] = target: Recombinant IGF-I (human) (human) (UniProt P05019); assay: BIAcore, IGF-I immobilised by amine coupling, pIGFBP-1 injected at 10 µl/min after 2 h with partially purified azurocidin, mean sensorgram
[3] = target: Recombinant IGF-I (human) (human) (UniProt P05019); assay: BIAcore, IGF-I immobilised by amine coupling, pIGFBP-1 injected at 10 µl/min after 4 h with partially purified azurocidin, mean sensorgram

binding [1]: binds | binding [2]: binds
B1: Recombinant phosphorylated IGFBP-1 after 2-h proteolysis by partially purified azurocidin (protein, human)
chain 1: APWQCAPCSAEKLALCPPVSASCSEVTRSAGCGCCPMCALPLGAACGVATARCARGLSCRALPGEQQPLHALTRGQGACVQESDASAPHAAEAGSPESPESTEITEEELLDNFHLMAPSEEDHSILWDAI
chain 2: STYDGSKALHVTNIKKWKEPCRIELYRVVESLAKAQETSGEEISKFYLPNCNKNGFYHSRQCETSMDGEAGLCWCVYPWNGKRIPGSPEIRGDPNCQIYFNVQN
modifications: from the phosphorylated protein; sites not determined

binding [3]: binds
B2: Recombinant phosphorylated IGFBP-1 after 4-h proteolysis by partially purified azurocidin (protein, human)
chain 1: B1 chain 1
chain 2: B1 chain 2
modifications: from the phosphorylated protein; sites not determined
